From patent publication US20120263784A1, “EMERGENCY CONTRACEPTIVE” (LYKA LABS LIMITED, priority 2009, published 2012)
For at least one compound, name, drawing or mass did not settle the structure.

Tested on: animals
Assay: Contraceptive efficacy after four weeks of intranasal treatment, with mating during treatment
Format: in vivo
Conditions: intranasal for four weeks, mucoadhesive formulations also given on alternate days

Compound: C#C[C@]1(O)CC[C@H]2[C@@H]3CCC4=CC(=O)CC[C@@H]4[C@H]3CC[C@@]21CC [levonorgestrel]
- contraceptive efficacy / anti-fertility: failed to show contraceptive efficacy
